{"sequences": {"note": "Protein sequences, listed by entry. Tags and fused reporters are not part of them. Residues count along the entry.", "UniProt P25445, residues 26-335": "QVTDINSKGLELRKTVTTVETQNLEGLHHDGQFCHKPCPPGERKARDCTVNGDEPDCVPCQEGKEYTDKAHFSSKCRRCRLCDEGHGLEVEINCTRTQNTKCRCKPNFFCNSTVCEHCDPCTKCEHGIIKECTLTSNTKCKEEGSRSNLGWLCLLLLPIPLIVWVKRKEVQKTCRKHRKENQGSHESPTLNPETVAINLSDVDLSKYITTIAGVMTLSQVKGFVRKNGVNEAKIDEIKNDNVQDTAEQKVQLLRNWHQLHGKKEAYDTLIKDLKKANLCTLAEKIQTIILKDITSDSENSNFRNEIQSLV"}, "source": "patent US6500940", "about": "(SALK INSTITUTE FOR BIOLOGICAL STUDIES, dated 2002)", "binders": {"B1": {"name": "amino-terminal myc epitope-tagged LFG (myc-LFG) (other, not shown: small tags and cut ends)", "chain": "MTRGKLSVANKAPGTEGQQQVHGEKKEAPAVPSAPPSYEEATSGEGMKAGAFPPAPTAVPLHPSWAYVDPSSSSSYDNGFPPETMSSSPLSAGMTKKVRRVFVRKVYTILLIQLLVTLAVVALFTFCDPCQGLCSGQPGWYWASYAVFFATYLTLACCSGPRRHFPWNLILLTVFTLSMAYLTGMLSSYYNTTSVLLCLGITALVCLSVTVFSFQTKFDFTSCQGVLFVLLMTLFFSGLILAILLPFQYVPWLHAVYAALGAGVFTLFLALDTQLLMGNRRHSLSPEEYIFGALNIYLDIIYIFTFFLQLFGTNRE", "notes": "Expressed from an expression vector by transient transfection (HeLa, 293 cells) and found by immunoprecipitation and immunoblot; also called lifeguard"}}, "key": {"human Fas (human) [1]": {"biological_target": "human Fas (human) (UniProt P25445)", "assay": "co-immunoprecipitation (summary of the result)"}, "human Fas (human) [2]": {"biological_target": "human Fas (human) (UniProt P25445)", "assay": "co-immunoprecipitation with anti-human Fas antibodies, immunoblot, transiently transfected cells"}}, "note": "These are yes or no findings as the source states them, for the method shown. In cells and extracts the contact can be indirect. Some entries that bind do so weakly or less than the wild type. Where a sequence is shown, tags or fusion partners need not be part of it.", "data": [{"binder": "B1", "values": [{"measurement": "binding", "setting": "human Fas (human) [1]", "result": "binds"}, {"measurement": "binding", "setting": "human Fas (human) [2]", "result": "binds"}]}]}
